Results on one compound are retold here after publication PMC5445127 (Frontiers in Plant Science, 2017).

By UniProt entry, the sequences of proteins in these tests, tags left out.
UniProt K7VIQ3, entry or part of it: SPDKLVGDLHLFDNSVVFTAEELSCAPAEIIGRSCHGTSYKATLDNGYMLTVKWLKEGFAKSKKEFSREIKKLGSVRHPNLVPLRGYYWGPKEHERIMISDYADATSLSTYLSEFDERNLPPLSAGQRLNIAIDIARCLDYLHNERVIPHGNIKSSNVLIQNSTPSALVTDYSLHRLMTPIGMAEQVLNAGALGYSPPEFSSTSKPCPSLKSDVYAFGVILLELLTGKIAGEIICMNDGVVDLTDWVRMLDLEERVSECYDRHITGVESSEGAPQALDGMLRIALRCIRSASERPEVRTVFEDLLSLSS

SMILES strings stand for the structures.

The assay deals with T1, ZmSIRK1 (ZmSIRK1^737-1045) (Zea mays, UniProt K7VIQ3).
T1 construct: gene ZEAMMB73_Zm00001d047570; kinase domain Ser737-Ser1045 (full length 1045 aa; KD 762-1040), E. coli BL21(DE3)-R3-pRARE2, pNIC28a-Bsa4, 6xHis tag removed by TEV; forward primer encodes S737-V-V-F-T-A-E (translated); motifs 907DYS909, 933PPE935; model residues 744-972, 977-1000, 1009-1045
Nature of the assay: isothermal titration calorimetry. It is filed as binding.

The term Kd denotes the free concentration of one partner at which half of the binding sites on the other are occupied at equilibrium, for simple one-to-one binding. Low readings indicate a tighter complex, high ones a looser complex. In turn, `CC(C)n1nc(-c2cc3cc(O)ccc3[nH]2)c2c(N)ncnc21` [PP242] came in with a dissociation constant (Kd) of 460 nM.
